Measurements taken from US20160208005A1.
These are yes or no findings as the source states them, for the method shown. Some entries that bind do so weakly or less than the wild type.

Experiments:
[1] = target: human TSLP receptor-human Fc fusion protein (human); experiment: ELISA using the human TSLP receptor-human Fc fusion protein
[2] = target: monkey TSLP receptor-human Fc fusion protein (monkey (receptor part), human (Fc part)); experiment: ELISA using the monkey TSLP receptor-human Fc fusion protein

B1: T7-27 (chimeric antibody) (antibody, V domains shown)
VH: EVQLLESGGGLVQPGGSLRLSCAASGFTFRSSAMHWVRQAPGKGLKWVSSVSGSGAGTYYADSVKGRFTISRDNPKNTLYLQMNSLRAEDTAVYYCVKEGGSRGFDYWGQGTLVTVSS
VL: DIQMTQSPSSLSASVGDRVTITCRASQDISNYLAWFQQKPGKAPKSLIYTASSLQSGVPSKFSGSGSGTDFTLTISSLQPEDFATYYCQQYNLYPPTFGQGTKVEIKR
For B1, the binding [1] was “binds” and the binding [2] was “binds”.
